From patent publication US20070148774A1

Tests used:
Assay in all cases: phage ELISA
cytochrome C = biological target: cytochrome C
[1] = biological target: glyceraldehyde-3-phosphate dehydrogenase
[2] = biological target: keyhole limpet haemocyanin (keyhole limpet)
ovalbumin = biological target: ovalbumin
thyroglobulin = biological target: thyroglobulin
trypsin inhibitor = biological target: trypsin inhibitor

Measured: binding

B1: lysozyme binder scFv from the unimmunized human library (VH13.1 / VL13.1), on phage (scFv, V domains shown)
VH: QVQLVQSGAEVKKPGQSLMISCQGSGYSFSNYWIGWVRQMPGKGLEWMGIIYPGDSDTRYSPSFQGQVTISADKSISTAYLHWSSLKASDTALYYCARLVGGTPAYWGQGT
VL: HVILTQPASVSGSPGQSITISCTGSSRDVGGYNYVSWYQHHPGKAPKLLISEVTNRPSGVSNRFSGSKSGNTASLTISGLQAEDEADYFCASYTSSKTYVFGG
no binding (tested: 100 ug/ml coating): all assays above

Results are given in words; binding and its absence hold for the method and conditions named.
